{"source": "patent US20060141067A1", "about": "“Anti-allergic herbal formulation” (priority 2004, published 2006)", "origin": "cited, not measured here", "conditions": "cited from earlier work", "note": "At least one compound was matched to its structure with a doubt left."}
{"smiles": "CN(C)CCC(c1ccccc1)c1ccccn1.O=C(O)/C=C\\C(=O)O", "note": "(stereo not shown) [Avil]", "values": [{"measurement": "Disadvantages", "result": "Dizziness and Drowsiness"}]}
